Measurements reported in PMC11515918.
No constants are given. Whether binding was seen depends on the method and setting. In cells and extracts the contact can be indirect. Some results given as binding are weak or reduced against the parent protein; the word gives no strength.

Protein sequences, listed by entry. Tags and fused reporters are not part of them.
UniProt P05556: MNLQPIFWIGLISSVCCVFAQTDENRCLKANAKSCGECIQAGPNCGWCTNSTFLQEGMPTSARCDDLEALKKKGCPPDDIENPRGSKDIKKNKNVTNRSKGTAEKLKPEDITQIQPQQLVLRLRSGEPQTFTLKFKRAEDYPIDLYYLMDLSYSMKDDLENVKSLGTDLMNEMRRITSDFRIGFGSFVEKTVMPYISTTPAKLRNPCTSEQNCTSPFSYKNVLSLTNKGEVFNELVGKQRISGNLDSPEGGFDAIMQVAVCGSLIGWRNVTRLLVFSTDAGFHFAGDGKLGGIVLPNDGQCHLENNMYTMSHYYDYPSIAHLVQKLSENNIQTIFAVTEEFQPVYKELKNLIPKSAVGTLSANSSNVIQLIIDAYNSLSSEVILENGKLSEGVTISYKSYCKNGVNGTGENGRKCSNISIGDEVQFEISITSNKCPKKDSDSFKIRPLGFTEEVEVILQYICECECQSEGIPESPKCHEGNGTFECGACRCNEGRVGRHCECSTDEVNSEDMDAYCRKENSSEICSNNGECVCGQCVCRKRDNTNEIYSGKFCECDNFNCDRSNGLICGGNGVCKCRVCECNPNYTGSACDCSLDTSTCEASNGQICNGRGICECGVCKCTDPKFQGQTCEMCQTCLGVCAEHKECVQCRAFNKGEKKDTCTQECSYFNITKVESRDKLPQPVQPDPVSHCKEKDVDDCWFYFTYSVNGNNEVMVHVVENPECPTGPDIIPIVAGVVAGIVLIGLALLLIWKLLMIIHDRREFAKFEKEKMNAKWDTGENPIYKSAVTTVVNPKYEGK

Molecular target: Integrin β1 (ITGB1) (UniProt P05556)
Assay: pull-down; GST pull-down of GMFG and ITGB1; bait, prey and conditions not told in the main text (Supplementary Methods)

binding: binds
Substance: GMFG (from UniProt O60234 1-142)
